Counter-ions that a name gives are not always drawn. The list shows a part of the results. Hit calls seldom repeat between salt and free forms of one compound.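 In K562 cells expressing nanoluciferase-fused kinases, luminescence was recorded at 4 h intervals between 2 and 18 h, normalized as percent of control with DMSO at 100% and a positive control at 0%. A significant (2 sigma) signal drop marks a time point as decreased. The authors' rule for a hit is not shown and takes in more than the number of time points.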
How the values were obtained:
Conditions in all cases: K562; 2-18 h
[1] = biological target: STK38 (UniProt Q15208); assay: kinase-Nluc reporter destabilization hit call (1 = scored as downregulated) (binary); higher = compound decreases kinase abundance
[2] = biological target: SYK (UniProt P43405); assay: as above
[3] = biological target: TEC (UniProt P42680); assay: as above
[4] = biological target: TYK2 (UniProt P29597); assay: as above
[5] = biological target: ULK3 (UniProt Q6PHR2); assay: as above
[6] = biological target: YES1 (UniProt P07947); assay: as above
[7] = biological target: ZAK (UniProt Q9NYL2); assay: as above
[8] = biological target: ZAP70 (UniProt P43403); assay: as above
[9] = biological target: ABL1 (UniProt P00519); assay: number of time points (of 5) at which kinase-Nluc abundance scored as decreased, DMSO-normalised (count); higher = more persistent destabilization
[10] = biological target: AKT1 (UniProt P31749); assay: as above

By UniProt entry, the sequences of proteins in these tests, tags left out. Where a name states a change or a piece, a line headed by the entry shows the natural chain unless it says otherwise.
UniProt Q15208: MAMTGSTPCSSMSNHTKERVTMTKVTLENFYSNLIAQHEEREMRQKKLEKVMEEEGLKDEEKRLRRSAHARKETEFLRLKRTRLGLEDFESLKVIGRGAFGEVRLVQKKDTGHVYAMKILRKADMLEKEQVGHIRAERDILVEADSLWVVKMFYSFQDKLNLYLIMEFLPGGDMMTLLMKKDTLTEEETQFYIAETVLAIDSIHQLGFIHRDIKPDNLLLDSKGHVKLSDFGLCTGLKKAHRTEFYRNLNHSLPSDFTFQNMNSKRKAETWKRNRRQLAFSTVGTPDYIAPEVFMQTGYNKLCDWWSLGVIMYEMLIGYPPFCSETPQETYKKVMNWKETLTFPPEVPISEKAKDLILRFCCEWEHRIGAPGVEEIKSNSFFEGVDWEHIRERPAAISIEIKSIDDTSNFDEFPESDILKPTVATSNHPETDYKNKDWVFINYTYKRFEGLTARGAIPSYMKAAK
UniProt P42680: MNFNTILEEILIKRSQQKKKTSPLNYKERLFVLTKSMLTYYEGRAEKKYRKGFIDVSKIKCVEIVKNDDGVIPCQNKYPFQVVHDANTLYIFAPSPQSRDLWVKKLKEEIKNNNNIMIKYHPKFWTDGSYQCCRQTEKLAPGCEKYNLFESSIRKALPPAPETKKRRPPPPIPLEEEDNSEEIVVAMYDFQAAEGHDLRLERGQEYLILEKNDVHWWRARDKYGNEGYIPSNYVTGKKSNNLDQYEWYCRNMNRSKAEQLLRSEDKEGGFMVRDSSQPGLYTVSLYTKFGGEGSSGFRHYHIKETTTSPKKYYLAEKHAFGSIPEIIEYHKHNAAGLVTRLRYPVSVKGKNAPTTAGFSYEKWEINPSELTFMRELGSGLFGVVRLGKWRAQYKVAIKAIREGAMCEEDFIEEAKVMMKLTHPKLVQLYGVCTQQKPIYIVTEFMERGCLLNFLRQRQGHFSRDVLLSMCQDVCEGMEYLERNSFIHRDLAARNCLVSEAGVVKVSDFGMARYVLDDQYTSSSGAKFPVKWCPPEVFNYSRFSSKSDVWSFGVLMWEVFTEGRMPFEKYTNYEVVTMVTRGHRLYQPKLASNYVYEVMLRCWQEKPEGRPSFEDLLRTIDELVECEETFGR
UniProt P29597: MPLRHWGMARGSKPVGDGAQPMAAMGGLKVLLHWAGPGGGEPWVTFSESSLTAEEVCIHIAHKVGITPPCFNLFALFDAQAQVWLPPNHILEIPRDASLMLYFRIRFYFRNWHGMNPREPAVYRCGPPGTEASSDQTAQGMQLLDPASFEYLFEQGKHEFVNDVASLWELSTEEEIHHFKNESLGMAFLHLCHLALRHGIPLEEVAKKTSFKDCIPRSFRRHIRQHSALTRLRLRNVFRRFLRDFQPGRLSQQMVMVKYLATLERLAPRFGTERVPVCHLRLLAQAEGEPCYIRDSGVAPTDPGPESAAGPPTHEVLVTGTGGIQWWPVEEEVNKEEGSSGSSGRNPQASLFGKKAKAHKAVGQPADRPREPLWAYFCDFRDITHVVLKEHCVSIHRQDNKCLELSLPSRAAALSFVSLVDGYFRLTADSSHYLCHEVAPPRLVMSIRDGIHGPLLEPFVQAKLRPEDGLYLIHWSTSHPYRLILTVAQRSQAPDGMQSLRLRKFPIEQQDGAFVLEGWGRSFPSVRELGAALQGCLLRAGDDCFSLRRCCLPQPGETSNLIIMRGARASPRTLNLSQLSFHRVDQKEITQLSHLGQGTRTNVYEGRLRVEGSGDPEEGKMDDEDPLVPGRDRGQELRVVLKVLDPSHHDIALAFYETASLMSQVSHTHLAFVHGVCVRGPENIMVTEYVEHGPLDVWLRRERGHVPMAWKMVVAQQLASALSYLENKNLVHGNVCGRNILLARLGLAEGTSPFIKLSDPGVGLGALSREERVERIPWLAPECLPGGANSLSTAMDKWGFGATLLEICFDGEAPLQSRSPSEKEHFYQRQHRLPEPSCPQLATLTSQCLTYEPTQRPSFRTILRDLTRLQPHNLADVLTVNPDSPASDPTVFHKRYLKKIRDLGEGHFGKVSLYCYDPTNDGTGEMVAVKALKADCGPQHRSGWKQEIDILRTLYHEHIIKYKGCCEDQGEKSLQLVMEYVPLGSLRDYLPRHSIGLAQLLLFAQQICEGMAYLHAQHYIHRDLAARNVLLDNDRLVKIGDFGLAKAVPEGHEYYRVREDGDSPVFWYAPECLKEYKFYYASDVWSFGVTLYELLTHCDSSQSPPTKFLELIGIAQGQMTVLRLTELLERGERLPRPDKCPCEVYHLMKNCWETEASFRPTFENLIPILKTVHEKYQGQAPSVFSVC
UniProt Q6PHR2: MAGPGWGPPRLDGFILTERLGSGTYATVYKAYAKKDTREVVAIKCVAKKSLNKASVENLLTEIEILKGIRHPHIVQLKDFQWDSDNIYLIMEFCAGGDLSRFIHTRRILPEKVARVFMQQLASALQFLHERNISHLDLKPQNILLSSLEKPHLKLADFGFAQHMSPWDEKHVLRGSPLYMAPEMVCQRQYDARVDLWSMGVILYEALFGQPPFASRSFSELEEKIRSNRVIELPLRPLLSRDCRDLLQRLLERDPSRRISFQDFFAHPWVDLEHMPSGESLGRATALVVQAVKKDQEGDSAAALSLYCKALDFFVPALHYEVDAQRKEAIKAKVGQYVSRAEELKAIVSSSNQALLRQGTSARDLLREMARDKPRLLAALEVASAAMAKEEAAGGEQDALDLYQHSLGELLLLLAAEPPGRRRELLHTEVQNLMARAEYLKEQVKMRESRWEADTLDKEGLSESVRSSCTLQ
UniProt P07947, whole entry, looked up: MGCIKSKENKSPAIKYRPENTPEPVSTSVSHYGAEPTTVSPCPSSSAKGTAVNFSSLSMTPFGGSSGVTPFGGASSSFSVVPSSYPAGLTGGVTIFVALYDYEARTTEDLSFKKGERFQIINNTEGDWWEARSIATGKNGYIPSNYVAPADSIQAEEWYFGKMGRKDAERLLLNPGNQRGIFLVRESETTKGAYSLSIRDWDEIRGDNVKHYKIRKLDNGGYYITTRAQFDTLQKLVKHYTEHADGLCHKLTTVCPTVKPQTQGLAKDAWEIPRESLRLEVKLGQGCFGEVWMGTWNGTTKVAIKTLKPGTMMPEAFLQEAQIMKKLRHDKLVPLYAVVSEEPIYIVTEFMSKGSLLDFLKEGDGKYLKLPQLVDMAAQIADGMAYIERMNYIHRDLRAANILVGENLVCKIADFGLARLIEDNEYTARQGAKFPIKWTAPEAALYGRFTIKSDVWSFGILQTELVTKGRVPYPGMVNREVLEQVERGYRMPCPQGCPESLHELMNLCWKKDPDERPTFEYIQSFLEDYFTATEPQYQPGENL
UniProt P43403: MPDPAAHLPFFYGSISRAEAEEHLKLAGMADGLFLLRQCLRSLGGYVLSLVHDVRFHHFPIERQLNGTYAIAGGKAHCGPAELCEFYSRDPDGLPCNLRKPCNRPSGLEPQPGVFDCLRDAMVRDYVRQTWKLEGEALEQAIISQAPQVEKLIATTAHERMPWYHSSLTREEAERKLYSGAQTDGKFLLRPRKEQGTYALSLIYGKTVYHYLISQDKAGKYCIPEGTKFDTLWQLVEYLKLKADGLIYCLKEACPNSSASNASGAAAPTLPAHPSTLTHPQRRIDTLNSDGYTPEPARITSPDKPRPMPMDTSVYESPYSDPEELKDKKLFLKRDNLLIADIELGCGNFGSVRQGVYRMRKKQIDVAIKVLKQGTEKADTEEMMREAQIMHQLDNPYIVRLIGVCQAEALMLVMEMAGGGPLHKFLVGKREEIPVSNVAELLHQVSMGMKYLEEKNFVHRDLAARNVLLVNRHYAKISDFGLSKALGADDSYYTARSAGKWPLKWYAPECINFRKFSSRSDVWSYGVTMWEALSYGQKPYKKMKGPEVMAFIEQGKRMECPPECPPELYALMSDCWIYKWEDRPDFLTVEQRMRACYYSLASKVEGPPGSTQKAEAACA
UniProt P00519, whole entry: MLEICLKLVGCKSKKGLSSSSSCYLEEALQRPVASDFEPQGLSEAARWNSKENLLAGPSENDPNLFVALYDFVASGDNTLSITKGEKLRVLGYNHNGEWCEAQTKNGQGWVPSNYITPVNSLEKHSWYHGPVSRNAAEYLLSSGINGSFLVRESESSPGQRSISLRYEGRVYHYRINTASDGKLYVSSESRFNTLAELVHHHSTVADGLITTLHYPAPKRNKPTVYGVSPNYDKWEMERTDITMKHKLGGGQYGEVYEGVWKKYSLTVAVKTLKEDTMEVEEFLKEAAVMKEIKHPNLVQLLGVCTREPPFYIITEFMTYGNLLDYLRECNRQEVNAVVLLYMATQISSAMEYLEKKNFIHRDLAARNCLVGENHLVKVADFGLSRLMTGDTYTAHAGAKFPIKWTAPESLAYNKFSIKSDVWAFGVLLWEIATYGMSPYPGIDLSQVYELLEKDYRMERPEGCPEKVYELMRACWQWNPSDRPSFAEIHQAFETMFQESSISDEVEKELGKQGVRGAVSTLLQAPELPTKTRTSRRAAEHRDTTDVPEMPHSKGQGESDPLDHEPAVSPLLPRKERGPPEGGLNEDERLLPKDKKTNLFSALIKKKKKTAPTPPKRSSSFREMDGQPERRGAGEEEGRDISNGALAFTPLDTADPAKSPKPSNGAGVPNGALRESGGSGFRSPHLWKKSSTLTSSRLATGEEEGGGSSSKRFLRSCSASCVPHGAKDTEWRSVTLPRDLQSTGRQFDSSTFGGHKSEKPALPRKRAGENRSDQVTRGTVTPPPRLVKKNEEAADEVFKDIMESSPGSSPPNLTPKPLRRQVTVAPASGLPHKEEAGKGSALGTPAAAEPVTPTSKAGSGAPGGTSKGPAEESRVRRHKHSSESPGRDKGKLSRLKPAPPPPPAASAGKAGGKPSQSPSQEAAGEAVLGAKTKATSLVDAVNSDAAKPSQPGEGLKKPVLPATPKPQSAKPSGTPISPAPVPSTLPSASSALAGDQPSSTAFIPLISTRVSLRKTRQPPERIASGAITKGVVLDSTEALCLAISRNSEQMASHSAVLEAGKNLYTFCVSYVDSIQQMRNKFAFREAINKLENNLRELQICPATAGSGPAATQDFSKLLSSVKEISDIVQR
UniProt P31749: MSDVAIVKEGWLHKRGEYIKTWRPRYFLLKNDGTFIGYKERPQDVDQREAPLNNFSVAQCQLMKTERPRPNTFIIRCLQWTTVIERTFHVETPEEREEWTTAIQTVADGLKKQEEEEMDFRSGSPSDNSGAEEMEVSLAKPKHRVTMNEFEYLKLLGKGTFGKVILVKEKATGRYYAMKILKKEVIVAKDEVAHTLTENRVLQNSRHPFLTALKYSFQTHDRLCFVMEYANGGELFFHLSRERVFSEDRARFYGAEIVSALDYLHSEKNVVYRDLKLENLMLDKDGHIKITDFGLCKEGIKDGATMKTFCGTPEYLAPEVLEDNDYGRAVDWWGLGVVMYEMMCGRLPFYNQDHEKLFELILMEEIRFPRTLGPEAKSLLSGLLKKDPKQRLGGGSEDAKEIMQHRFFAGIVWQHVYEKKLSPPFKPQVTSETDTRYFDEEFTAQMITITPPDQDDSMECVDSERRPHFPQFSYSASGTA

SMILES	kinase-Nluc reporter destabilization hit call [1]	kinase-Nluc reporter destabilization hit call [2]	kinase-Nluc reporter destabilization hit call [3]	kinase-Nluc reporter destabilization hit call [4]	kinase-Nluc reporter destabilization hit call [5]	kinase-Nluc reporter destabilization hit call [6]	kinase-Nluc reporter destabilization hit call [7]	kinase-Nluc reporter destabilization hit call [8]	number of time points [9]	number of time points [10]
Cc1cc(Nc2ncnc3ccc(NC4=NC(C)(C)CO4)cc23)ccc1Oc1ccn2ncnc2c1 [Tucatinib] (2.5 µM)	inactive: 0	inactive: 0	inactive: 0	inactive: 0	inactive: 0	inactive: 0	inactive: 0	inactive: 0	0	0
COc1cc2nccc(Oc3ccc(NC(=O)NC4CC4)c(Cl)c3)c2cc1C(N)=O [Lenvatinib (mesylate)] (10 µM)	inactive: 0	inactive: 0	inactive: 0	inactive: 0	inactive: 0	inactive: 0	inactive: 0	inactive: 0	0	0
Cn1cc(-c2ccc3nnc(Sc4ccc5ncccc5c4)n3n2)cn1 (10 µM)	inactive: 0	inactive: 0	inactive: 0	inactive: 0	inactive: 0	inactive: 0	inactive: 0	inactive: 0	0	0
CCNc1nc(Nc2cc(F)c(C(=O)N3CCOCC3)cc2OC)ncc1C(F)(F)F [GNE-7915 (tosylate)] (10 µM)	inactive: 0	inactive: 0	inactive: 0	inactive: 0	inactive: 0	inactive: 0	inactive: 0	inactive: 0	0	0
Cc1ccccc1-c1c2nccc(-c3ccc(F)cc3F)c2cc[n+]1[O-] (10 µM)	inactive: 0	inactive: 0	inactive: 0	inactive: 0	inactive: 0	inactive: 0	inactive: 0	inactive: 0	0	0
Cc1cccc(Oc2cnc(=O)[nH]c2)c1 [Tolimidone] (10 µM)	inactive: 0	inactive: 0	inactive: 0	inactive: 0	inactive: 0	inactive: 0	inactive: 0	inactive: 0	0	0
COc1ncc(Cl)cc1S(=O)(=O)Nc1ccc(F)c(C#Cc2cnc(N)nc2)c1F (2.5 µM)	inactive: 0	inactive: 0	inactive: 0	inactive: 0	inactive: 0	inactive: 0	inactive: 0	inactive: 0	0	0
CNC(=O)c1ccc(C)c(-n2c(C)cc(OCc3ccc(F)cc3F)c(Br)c2=O)c1 (10 µM)	inactive: 0	inactive: 0	inactive: 0	inactive: 0	inactive: 0	inactive: 0	inactive: 0	inactive: 0	0	0
C=C1C(=O)O[C@H]2C[C@H](C)C(/C=C/C(C)=O)=CC[C@H]12 [Xanthatin] (2.5 µM)	inactive: 0	inactive: 0	inactive: 0	inactive: 0	inactive: 0	inactive: 0	inactive: 0	inactive: 0	0	0
C=CC(=O)Nc1cccc(Nc2nc(Nc3ccc(N4CCN(C(C)=O)CC4)cc3OC)ncc2C(F)(F)F)c1 [Rociletinib] (10 µM)	inactive: 0	inactive: 0	inactive: 0	inactive: 0	inactive: 0	inactive: 0	inactive: 0	inactive: 0	0	0
COc1cc2nccc(Oc3ccc(NC(=O)NC4CC4)c(Cl)c3)c2cc1C(N)=O [Lenvatinib] (10 µM)	inactive: 0	inactive: 0	inactive: 0	inactive: 0	inactive: 0	inactive: 0	inactive: 0	inactive: 0	0	0
CC#CC(=O)Nc1ccc2ncnc(Nc3cccc(Br)c3)c2c1 (10 µM)	inactive: 0	inactive: 0	inactive: 0	inactive: 0	inactive: 0	inactive: 0	inactive: 0	inactive: 0	3	0
c1cncc(CN2CCC(n3ncc4c(N5CCOCC5)nc(-c5ccc6[nH]ccc6c5)nc43)CC2)c1 (10 µM)	inactive: 0	inactive: 0	inactive: 0	inactive: 0	inactive: 0	inactive: 0	inactive: 0	inactive: 0	5	0
CCc1c(C(=O)NNC(=O)C(O)c2cc(F)cc(F)c2)ccc(O)c1C (stereo not given) (10 µM)	inactive: 0	inactive: 0	inactive: 0	inactive: 0	inactive: 0	inactive: 0	inactive: 0	inactive: 0	0	0
C[C@@H]1COCCN1c1cc(C2([S@@](C)(=N)=O)CC2)nc(-c2ccnc3[nH]ccc23)n1 [(S)-Ceralasertib] (10 µM)	inactive: 0	inactive: 0	inactive: 0	inactive: 0	inactive: 0	inactive: 0	inactive: 0	inactive: 0	0	0
O=c1[nH]c(=O)n([C@@H]2O[C@H](CO)[C@@H](O)[C@@H]2O)cc1/C=C/Br [Sorivudine] (10 µM)	inactive: 0	inactive: 0	inactive: 0	inactive: 0	inactive: 0	inactive: 0	inactive: 0	inactive: 0	0	0
CC#CC(=O)N1CC[C@@H](n2c(=O)n(-c3ccc(Oc4ccccc4)cc3)c3c(N)ncnc32)C1 [Tirabrutinib (hydrochloride)] (10 µM)	inactive: 0	inactive: 0	inactive: 0	inactive: 0	inactive: 0	inactive: 0	inactive: 0	inactive: 0	0	0
NC(=O)c1ccc2[nH]ccc2c1 (10 µM)	inactive: 0	inactive: 0	inactive: 0	inactive: 0	inactive: 0	inactive: 0	inactive: 0	inactive: 0	0	0
COCCNc1nc2ccc(C#CC3(O)CCCCC3)cc2n1-c1ccnc(N)n1 (10 µM)	inactive: 0	inactive: 0	inactive: 0	inactive: 0	inactive: 0	inactive: 0	inactive: 0	inactive: 0	0	0
Cn1cnc2c(F)c(Nc3ccc(Br)cc3Cl)c(C(=O)NOCCO)cc21 [Selumetinib (sulfate)] (10 µM)	inactive: 0	inactive: 0	inactive: 0	inactive: 0	inactive: 0	inactive: 0	inactive: 0	inactive: 0	1	0
CC(=O)NC1CC(n2cnc(NC(=O)Cc3ccc4ccccc4c3)c2)C1 (stereo not given) (10 µM)	inactive: 0	inactive: 0	inactive: 0	inactive: 0	inactive: 0	inactive: 0	inactive: 0	inactive: 0	0	0
COc1cc(Nc2ncc(F)c(Nc3ccc4c(n3)N(COP(=O)(O)O)C(=O)C(C)(C)O4)n2)cc(OC)c1OC [Fostamatinib Disodium] (10 µM)	inactive: 0	inactive: 0	inactive: 0	inactive: 0	inactive: 0	inactive: 0	inactive: 0	inactive: 0	0	0
O=Nc1c(-c2c(O)[nH]c3ccc(F)cc23)[nH]c2ccccc12 [5'-Fluoroindirubinoxime] (10 µM)	inactive: 0	inactive: 0	inactive: 0	inactive: 0	inactive: 0	inactive: 0	inactive: 0	inactive: 0	1	0
CC1=C(C(=O)O)N2C(=O)[C@@H](NC(=O)[C@H](N)C3=CCC=CC3)[C@H]2SC1 [Cephradine] (10 µM)	inactive: 0	inactive: 0	inactive: 0	inactive: 0	inactive: 0	inactive: 0	inactive: 0	inactive: 0	0	0
CN1CCC(c2cc(-c3ccncc3)c(-c3ccc(F)cc3)[nH]2)CC1 (10 µM)	inactive: 0	inactive: 0	inactive: 0	inactive: 0	inactive: 0	inactive: 0	inactive: 0	inactive: 0	0	0
COc1cc2ncnc(Nc3ccc(Cl)cc3F)c2cc1OC (10 µM)	inactive: 0	inactive: 0	inactive: 0	inactive: 0	inactive: 0	inactive: 0	inactive: 0	inactive: 0	0	0
O=C(NCCN1CCCC1)c1cc(-c2ccc(CN3CCOCC3)cc2)nc2ccc(F)cc12 (10 µM)	inactive: 0	inactive: 0	inactive: 0	inactive: 0	inactive: 0	inactive: 0	inactive: 0	inactive: 0	0	0
NC(=O)c1ccc(-c2nc(-c3ccc4c(c3)OCCO4)c(-c3ccccn3)[nH]2)cc1 (10 µM)	inactive: 0	inactive: 0	inactive: 0	inactive: 0	inactive: 0	inactive: 0	inactive: 0	inactive: 0	0	0

Single records, from the list above. Values in the order: kinase-Nluc reporter destabilization hit call [1] | kinase-Nluc reporter destabilization hit call [2] | kinase-Nluc reporter destabilization hit call [3] | kinase-Nluc reporter destabilization hit call [4] | kinase-Nluc reporter destabilization hit call [5] | kinase-Nluc reporter destabilization hit call [6] | kinase-Nluc reporter destabilization hit call [7] | kinase-Nluc reporter destabilization hit call [8] | number of time points [9] | number of time points [10]
CC(=O)NC1CC(n2cnc(NC(=O)Cc3ccc4ccccc4c3)c2)C1 (stereo not given) (10 µM) is entered as inactive: 0 | inactive: 0 | inactive: 0 | inactive: 0 | inactive: 0 | inactive: 0 | inactive: 0 | inactive: 0 | 0 | 0
O=C(NCCN1CCCC1)c1cc(-c2ccc(CN3CCOCC3)cc2)nc2ccc(F)cc12 (10 µM) is entered as inactive: 0 | inactive: 0 | inactive: 0 | inactive: 0 | inactive: 0 | inactive: 0 | inactive: 0 | inactive: 0 | 0 | 0

From the supplement of paper PMC12823440, “Inhibitors supercharge kinase turnover through native proteolytic circuits” (Nature, 2025)
